Data reported in paper doi:10.1101/2021.02.04.429732.
These are yes or no findings as the source states them, for the method shown. Binding seen in cells or lysates may run through a third protein. A yes stands for co-enrichment or nearness to the bait. Other partners may have been found.

Protein sequences, listed by entry. Tags and fused reporters are not part of them.
UniProt Q9H8M2: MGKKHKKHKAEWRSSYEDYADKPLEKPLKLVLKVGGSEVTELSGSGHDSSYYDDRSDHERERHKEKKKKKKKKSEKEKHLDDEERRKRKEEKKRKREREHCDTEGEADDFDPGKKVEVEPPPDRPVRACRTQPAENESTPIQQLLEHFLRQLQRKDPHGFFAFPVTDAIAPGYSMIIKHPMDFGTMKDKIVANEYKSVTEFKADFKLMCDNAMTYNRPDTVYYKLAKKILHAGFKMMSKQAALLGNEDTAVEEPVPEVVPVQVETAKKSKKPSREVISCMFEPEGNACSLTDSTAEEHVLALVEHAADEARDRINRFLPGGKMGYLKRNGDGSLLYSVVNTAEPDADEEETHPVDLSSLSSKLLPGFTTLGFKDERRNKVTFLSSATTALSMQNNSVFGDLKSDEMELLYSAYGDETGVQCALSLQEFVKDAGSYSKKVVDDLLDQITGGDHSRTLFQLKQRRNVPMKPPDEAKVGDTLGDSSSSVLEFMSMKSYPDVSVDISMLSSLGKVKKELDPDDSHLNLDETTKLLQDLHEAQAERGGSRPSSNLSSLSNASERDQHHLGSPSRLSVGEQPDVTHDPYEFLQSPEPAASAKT
UniProt Q9NZM4: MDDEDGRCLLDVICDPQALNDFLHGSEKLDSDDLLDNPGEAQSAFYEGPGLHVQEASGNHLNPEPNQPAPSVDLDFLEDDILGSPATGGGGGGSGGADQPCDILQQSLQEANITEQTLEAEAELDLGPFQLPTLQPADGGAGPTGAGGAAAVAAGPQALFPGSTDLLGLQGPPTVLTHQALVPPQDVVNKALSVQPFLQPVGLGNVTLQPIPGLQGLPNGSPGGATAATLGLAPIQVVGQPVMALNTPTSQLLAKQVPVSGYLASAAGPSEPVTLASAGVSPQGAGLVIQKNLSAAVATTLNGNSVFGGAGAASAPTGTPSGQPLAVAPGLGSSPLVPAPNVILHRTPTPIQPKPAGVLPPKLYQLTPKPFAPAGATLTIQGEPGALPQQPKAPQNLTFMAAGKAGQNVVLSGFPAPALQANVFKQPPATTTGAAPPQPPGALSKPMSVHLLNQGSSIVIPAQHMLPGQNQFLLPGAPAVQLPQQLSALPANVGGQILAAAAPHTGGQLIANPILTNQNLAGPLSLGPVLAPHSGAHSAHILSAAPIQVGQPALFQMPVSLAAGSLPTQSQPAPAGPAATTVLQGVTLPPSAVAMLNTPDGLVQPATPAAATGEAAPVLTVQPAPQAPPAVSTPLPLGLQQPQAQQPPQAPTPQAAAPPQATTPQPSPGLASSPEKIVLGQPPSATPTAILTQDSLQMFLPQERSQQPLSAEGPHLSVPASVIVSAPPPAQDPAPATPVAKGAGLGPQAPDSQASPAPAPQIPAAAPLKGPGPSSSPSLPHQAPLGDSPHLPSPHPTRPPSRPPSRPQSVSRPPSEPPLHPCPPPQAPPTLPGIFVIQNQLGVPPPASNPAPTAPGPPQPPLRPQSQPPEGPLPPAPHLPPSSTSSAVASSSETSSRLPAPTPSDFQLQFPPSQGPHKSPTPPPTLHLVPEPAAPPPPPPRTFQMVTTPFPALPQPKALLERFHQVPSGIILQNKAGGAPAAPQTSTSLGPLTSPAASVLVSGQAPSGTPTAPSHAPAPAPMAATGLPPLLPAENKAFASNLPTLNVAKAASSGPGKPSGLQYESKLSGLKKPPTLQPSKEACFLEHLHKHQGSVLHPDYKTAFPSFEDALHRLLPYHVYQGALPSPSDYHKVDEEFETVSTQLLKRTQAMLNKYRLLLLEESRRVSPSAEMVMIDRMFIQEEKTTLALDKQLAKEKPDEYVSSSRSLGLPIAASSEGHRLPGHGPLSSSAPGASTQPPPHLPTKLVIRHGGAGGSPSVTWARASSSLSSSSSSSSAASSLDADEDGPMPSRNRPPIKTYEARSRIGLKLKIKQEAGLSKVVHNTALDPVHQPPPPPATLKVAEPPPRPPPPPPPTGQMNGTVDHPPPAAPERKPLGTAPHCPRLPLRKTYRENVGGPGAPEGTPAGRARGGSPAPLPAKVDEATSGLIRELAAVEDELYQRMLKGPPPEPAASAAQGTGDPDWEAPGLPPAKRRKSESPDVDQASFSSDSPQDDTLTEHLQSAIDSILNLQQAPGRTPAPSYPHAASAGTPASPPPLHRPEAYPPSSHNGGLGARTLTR
UniProt Q6AI39: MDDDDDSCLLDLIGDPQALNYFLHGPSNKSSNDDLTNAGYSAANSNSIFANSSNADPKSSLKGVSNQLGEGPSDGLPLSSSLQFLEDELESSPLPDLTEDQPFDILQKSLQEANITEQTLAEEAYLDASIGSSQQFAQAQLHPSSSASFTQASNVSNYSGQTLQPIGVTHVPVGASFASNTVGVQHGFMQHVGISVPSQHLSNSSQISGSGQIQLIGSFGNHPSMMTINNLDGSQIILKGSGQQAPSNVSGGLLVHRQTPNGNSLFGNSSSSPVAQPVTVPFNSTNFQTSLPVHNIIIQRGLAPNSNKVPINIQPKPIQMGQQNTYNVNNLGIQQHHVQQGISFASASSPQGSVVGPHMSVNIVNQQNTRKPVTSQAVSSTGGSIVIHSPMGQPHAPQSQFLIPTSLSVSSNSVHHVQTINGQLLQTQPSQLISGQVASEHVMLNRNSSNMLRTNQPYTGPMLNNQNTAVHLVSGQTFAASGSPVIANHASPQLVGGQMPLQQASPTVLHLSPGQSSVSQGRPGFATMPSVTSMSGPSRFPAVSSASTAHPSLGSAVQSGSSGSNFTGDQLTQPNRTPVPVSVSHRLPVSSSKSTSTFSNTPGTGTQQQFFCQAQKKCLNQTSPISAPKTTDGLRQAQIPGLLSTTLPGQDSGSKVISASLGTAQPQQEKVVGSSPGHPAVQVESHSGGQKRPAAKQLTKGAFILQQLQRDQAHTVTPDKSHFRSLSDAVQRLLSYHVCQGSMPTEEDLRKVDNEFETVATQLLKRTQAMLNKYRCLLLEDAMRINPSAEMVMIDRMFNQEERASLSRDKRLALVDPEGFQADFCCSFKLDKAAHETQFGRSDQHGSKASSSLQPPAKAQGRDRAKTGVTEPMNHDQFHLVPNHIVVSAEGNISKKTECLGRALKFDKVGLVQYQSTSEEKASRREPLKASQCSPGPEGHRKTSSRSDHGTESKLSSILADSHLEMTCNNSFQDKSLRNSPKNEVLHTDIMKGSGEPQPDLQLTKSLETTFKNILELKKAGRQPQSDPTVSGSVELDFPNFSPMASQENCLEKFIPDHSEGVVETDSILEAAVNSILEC

Biological target: TurboID-tagged BRD9 (Bromodomain-containing protein 9) (human) (UniProt Q9H8M2)
Experiment: proximity labelling

Substance | binding
GLTSCR1 (from UniProt Q9NZM4 1-1560) | binds
GLTSCR1L (from UniProt Q6AI39 1-1079) | binds
